Reference: article PMC3847324, “Jun dimerization protein 2 is a critical component of the Nrf2/MafK complex regulating the response to ROS homeostasis”
No constants are given. Whether binding was seen depends on the method and setting. In cells and extracts the contact can be indirect. Binding can be weak; no strength is given. For part of these data: Tags and fused reporters may be left off the sequences shown. Blank lines part the entries; values can stand above or below the molecule they belong to.

Assays:
Assay in all cases: pull-down; 10 μg GST fusion protein on 10 μl glutathione-Sepharose beads incubated with 5 μl nonradioactive in vitro-translated protein in 500 μl binding buffer, 2 h at 4 °C; washed five times with 100 mM NaCl, 20 mM HEPES pH 7.9, 0.1% NP-40, 5 mM MgCl2, 0.5 mM PMSF; bound protein detected by western blotting; only the target purified
[1] = target: T1, GST–Nrf2 (UniProt Q60795)
T1 sequence: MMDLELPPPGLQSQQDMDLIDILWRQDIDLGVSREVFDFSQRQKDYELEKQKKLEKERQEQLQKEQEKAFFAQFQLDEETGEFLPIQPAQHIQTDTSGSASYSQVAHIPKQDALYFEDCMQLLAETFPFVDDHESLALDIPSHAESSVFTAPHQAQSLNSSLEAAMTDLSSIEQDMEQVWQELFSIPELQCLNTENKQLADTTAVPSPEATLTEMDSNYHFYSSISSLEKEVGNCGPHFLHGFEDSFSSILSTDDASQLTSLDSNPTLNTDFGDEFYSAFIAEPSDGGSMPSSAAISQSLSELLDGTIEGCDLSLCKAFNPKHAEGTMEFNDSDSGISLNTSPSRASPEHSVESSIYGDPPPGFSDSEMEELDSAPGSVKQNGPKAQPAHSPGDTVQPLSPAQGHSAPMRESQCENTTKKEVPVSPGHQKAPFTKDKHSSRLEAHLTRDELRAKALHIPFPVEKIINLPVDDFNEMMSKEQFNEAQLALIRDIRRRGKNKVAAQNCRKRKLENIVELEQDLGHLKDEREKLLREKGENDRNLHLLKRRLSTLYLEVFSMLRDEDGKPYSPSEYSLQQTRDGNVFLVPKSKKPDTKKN

[2] = target: GST–MafK (rat)
[3] = target: GST–MafK CT78 (aa 78–156) (rat)

binding [1]: binds
Molecule: in vitro-translated MafK (rat)

binding [2]: binds | binding [3]: binds
B1: in vitro-translated Nrf2 (protein, UniProt Q60795 1-597)
chain: T1 sequence
